Data on eight molecules can be found in PMC7948964.

By UniProt entry, the sequences of proteins in these tests, tags left out.
UniProt Q9ULQ0: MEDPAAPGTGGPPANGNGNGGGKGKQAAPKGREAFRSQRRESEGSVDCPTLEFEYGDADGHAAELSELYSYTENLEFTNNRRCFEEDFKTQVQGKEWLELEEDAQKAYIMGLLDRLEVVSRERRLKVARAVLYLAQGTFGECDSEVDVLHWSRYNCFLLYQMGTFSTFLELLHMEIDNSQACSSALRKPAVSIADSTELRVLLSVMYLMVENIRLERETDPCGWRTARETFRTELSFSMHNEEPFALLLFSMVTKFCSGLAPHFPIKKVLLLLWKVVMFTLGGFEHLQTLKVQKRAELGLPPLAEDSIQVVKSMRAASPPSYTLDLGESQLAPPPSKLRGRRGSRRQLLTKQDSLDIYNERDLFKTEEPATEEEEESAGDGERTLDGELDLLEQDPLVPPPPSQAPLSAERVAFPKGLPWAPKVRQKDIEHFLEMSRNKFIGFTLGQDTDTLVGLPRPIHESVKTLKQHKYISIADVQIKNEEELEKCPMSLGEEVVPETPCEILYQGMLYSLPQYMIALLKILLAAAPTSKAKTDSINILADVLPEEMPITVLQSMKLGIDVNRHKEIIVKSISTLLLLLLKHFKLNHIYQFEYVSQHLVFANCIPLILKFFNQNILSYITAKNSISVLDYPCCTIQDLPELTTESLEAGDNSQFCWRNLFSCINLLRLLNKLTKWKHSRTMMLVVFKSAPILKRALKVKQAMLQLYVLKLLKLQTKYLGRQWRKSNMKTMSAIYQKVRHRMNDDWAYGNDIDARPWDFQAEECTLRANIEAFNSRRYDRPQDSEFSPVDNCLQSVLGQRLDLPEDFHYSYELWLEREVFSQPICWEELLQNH
UniProt Q8WZ74: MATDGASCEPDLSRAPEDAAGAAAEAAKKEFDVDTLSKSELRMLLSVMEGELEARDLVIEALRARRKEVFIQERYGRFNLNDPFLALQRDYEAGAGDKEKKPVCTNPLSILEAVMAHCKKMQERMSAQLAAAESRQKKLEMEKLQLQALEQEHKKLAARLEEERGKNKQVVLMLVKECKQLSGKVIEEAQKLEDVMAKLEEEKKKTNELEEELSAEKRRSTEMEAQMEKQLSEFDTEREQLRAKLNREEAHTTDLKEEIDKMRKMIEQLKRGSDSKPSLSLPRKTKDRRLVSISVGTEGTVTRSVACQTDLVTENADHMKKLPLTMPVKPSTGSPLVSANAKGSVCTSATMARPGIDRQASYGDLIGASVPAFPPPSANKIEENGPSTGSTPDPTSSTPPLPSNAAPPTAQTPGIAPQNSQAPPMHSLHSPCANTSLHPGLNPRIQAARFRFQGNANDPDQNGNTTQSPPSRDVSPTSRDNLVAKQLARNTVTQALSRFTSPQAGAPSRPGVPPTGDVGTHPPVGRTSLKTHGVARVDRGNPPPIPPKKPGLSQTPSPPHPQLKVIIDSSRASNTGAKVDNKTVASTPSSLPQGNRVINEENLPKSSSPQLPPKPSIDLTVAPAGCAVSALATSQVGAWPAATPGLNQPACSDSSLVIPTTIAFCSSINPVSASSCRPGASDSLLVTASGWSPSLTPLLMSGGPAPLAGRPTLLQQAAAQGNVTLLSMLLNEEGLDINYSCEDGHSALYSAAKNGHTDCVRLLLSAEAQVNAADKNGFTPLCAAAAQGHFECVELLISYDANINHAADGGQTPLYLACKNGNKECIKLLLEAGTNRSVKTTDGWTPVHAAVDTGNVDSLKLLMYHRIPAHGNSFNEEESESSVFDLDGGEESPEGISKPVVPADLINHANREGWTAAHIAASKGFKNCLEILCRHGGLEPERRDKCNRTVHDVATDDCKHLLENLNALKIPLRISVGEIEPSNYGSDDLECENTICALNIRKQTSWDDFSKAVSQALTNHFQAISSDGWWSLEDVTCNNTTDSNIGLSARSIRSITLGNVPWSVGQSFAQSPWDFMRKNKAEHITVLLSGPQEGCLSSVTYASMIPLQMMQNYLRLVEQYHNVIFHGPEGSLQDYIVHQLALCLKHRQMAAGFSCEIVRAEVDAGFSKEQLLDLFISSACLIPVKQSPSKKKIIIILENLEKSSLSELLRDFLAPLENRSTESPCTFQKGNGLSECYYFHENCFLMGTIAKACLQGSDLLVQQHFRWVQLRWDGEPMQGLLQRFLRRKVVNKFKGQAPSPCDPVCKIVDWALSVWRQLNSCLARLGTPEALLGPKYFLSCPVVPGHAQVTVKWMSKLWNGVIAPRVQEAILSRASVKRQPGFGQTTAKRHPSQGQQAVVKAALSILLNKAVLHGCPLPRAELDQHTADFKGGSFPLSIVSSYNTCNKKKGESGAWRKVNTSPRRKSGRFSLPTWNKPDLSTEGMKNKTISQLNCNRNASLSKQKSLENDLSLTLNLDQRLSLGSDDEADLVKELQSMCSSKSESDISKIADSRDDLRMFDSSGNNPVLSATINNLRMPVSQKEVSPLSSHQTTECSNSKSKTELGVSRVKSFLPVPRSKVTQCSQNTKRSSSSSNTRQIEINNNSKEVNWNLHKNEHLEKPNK
UniProt P46934: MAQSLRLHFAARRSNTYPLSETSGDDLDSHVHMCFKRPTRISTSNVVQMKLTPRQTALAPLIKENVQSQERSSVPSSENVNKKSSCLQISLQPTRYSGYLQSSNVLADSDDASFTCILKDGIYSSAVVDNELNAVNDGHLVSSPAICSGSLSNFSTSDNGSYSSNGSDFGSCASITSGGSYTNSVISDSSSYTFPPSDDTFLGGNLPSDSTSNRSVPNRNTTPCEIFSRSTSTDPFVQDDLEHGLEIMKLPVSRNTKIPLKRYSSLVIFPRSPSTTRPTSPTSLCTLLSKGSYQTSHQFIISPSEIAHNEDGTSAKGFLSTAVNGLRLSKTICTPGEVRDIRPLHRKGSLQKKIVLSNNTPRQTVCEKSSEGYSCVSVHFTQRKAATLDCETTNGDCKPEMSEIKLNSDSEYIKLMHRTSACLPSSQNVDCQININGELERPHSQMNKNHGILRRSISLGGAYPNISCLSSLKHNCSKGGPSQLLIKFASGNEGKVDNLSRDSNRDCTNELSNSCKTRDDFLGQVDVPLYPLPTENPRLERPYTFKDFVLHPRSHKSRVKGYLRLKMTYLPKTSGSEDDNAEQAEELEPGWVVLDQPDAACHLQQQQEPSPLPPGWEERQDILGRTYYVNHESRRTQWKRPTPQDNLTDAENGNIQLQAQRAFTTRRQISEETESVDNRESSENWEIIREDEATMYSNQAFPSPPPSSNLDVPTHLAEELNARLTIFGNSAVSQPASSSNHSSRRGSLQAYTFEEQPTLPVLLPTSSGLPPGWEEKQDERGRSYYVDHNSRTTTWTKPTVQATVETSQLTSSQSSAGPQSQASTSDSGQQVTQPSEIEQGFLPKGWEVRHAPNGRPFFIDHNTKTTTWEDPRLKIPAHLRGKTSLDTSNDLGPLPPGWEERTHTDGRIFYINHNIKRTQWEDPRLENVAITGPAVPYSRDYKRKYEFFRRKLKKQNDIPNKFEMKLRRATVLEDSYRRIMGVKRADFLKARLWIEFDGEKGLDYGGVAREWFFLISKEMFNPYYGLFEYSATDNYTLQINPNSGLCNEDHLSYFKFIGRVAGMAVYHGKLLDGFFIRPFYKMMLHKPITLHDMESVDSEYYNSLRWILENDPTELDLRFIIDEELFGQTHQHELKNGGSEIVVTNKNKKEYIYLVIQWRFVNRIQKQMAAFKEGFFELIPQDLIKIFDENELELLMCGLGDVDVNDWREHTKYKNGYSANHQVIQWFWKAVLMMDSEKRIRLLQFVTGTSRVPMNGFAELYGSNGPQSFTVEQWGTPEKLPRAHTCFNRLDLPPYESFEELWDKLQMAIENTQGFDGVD
UniProt Q5VSL9: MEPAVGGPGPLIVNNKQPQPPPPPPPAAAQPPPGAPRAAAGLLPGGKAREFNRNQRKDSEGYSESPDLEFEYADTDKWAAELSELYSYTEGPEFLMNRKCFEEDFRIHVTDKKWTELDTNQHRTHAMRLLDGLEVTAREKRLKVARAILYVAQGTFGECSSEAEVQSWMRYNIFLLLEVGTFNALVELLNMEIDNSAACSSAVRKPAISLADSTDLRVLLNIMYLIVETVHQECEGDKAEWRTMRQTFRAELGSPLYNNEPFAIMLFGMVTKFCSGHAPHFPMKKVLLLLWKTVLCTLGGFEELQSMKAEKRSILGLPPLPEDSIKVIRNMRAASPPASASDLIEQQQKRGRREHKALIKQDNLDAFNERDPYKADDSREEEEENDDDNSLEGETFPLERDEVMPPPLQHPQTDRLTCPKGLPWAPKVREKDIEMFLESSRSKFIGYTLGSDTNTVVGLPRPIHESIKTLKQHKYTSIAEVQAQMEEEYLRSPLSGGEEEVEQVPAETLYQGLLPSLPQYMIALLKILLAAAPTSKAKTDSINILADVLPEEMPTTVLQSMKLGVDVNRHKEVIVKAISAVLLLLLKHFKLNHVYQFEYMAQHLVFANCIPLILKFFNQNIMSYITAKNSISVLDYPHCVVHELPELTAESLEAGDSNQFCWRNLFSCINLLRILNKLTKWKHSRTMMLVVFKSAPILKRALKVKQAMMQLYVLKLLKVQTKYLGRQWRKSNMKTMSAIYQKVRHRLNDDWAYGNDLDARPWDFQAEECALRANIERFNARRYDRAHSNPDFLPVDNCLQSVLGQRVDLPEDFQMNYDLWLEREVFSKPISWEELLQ
UniProt Q15386: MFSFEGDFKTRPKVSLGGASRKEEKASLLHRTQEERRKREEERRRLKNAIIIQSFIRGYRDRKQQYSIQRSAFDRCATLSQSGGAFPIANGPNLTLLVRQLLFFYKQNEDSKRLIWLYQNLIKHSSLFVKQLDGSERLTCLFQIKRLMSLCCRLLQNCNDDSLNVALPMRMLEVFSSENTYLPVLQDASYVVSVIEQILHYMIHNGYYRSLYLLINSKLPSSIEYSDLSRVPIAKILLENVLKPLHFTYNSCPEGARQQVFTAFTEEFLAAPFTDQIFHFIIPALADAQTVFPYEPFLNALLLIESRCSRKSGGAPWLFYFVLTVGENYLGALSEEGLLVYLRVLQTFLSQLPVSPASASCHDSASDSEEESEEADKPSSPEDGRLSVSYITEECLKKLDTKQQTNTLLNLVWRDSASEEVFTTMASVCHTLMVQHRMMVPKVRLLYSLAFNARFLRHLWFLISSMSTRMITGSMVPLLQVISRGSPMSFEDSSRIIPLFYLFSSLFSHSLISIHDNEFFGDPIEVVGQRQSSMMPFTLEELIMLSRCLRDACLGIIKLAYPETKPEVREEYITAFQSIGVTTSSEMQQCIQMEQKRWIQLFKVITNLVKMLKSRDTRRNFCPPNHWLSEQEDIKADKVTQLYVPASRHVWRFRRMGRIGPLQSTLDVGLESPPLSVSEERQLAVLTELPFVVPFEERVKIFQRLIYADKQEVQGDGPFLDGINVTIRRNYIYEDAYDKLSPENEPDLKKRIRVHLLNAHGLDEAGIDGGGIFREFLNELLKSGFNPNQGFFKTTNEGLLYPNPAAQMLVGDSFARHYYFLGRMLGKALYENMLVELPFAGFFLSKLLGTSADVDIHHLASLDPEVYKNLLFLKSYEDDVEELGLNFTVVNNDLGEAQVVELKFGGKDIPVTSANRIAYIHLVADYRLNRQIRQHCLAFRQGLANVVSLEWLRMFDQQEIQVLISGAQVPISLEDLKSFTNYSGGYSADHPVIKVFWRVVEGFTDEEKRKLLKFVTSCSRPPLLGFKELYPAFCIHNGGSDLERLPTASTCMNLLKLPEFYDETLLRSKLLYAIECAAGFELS

Read-outs that look alike come from different tables or passages of the source. Results are given in words; binding and its absence hold for the method and conditions named. In cells and extracts the contact can be indirect. These calls come from enrichment with a bait or labelling near it, and not all partners need be listed. For part of these data: A no says only that the protein was not detected with the bait. Sequences can lack the tags named with a protein.

What all share (assay): affinity purification with mass spectrometry; 3xFLAG TRABID constructs transiently expressed in HEK293ET; Triton Lysis Buffer; FLAG M2 magnetic beads 1 h at room temperature; gel slices, LC-MS/MS on an Orbitrap Velos; n = 1 for each plasmid
The target of experiment [1] is T1, 3xFLAG_TRABID ΔOTU (TRABID 1-339) (human) (UniProt Q9UGI0).
T1 sequence: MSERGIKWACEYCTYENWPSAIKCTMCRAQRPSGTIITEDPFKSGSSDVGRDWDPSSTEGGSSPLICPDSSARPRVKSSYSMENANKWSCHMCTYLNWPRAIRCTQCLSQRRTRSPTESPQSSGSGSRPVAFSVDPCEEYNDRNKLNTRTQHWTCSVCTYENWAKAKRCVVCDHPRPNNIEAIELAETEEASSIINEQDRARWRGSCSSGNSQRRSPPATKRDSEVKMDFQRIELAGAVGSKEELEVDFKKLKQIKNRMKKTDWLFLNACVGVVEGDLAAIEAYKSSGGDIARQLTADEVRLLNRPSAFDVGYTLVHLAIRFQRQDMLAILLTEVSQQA

The target in experiment [2] is T2, 3xFLAG_full-length-TRABID^C443S (human) (UniProt Q9UGI0).
T2 sequence: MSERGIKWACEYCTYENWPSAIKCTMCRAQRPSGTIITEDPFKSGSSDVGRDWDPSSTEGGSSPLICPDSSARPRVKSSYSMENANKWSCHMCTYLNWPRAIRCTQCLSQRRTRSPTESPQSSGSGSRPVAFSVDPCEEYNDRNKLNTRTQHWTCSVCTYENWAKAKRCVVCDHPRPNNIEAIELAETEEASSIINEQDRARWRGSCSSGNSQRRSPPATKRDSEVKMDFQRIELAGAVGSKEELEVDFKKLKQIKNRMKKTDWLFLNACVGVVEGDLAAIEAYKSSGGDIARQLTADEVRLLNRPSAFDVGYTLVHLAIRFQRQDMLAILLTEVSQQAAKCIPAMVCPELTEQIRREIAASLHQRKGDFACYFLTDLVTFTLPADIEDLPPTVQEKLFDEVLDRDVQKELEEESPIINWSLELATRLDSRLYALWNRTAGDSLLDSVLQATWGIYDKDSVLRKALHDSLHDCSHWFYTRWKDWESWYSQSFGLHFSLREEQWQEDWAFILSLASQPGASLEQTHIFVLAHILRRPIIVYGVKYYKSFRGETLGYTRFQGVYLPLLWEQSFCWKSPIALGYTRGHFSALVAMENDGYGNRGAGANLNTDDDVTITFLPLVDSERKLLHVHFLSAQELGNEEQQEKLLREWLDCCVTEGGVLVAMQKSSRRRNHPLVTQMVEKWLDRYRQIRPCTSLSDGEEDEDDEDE

The target of experiment [3] is T1, 3xFLAG_TRABID ΔOTU (TRABID 1-339) (human). The source holds these as a separate data set.
Experiment [4] addresses T2, 3xFLAG_full-length-TRABID^C443S (human). This is another data set of the same source.

Regarding FAM40B (from UniProt Q9ULQ0 1-834), the binding entry in experiment [1] is given as “no binding”; in experiment [2], “binds”.

In the case of CTTNBP2 (from UniProt Q8WZ74 1-1663), the binding result in experiment [1] is given as “no binding”; in experiment [2], “binds”.

For “endogenous NEDD4 (from UniProt P46934 1-1319) (enzyme)”, the binding result in experiment [1] and in experiment [2] was “no binding” throughout.

For FAM40A (from UniProt Q5VSL9 1-837), the binding entry is recorded as “no binding” in experiment [1] and “binds” in experiment [2].

“endogenous UBE3C (from UniProt Q15386 1-1083) (enzyme)”: the binding entry in experiment [2] is “binds”.

B1: CTTNBP2L (protein, UniProt Q9P2B4 1-639)
chain: MNLEKLSKPELLTLFSILEGELEARDLVIEALKAQHRDTFIEERYGKYNISDPLMALQRDFETLKEKNDGEKQPVCTNPLSILKVVMKQCKNMQERMLSQLAAAESRHRKVILDLEEERQRHAQDTAEGDDVTYMLEKERERLTQQLEFEKSQVKKFEKEQKKLSSQLEEERSRHKQLSSMLVLECKKATNKAAEEGQKAGELSLKLEKEKSRVSKLEEELAAERKRGLQTEAQVEKQLSEFDIEREQLRAKLNREENRTKTLKEEMESLKKIVKDLEASHQHSSPNEQLKKPVTVSKGTATEPLMLMSVFCQTESFPAERTHGSNIAKMTNTGLPGPATPAYSYAKTNGHCDPEIQTTRELTAGNNVENQVPPREKSVALAQEKPVENGGCPVGIETPVPMPSPLSSSGSSLSPSSTASSSLTSSPCSSPVLTKRLLGSSASSPGYQSSYQVGINQRFHAARHKFQSQADQDQQASGLQSPPSRDLSPTLIDNSAAKQLARNTVTQVLSRFTSQQGPIKPVSPNSSPFGTDYRNLANTANPRGDTSHSPTPGKVSSPLSPLSPGIKSPTIPRAERGNPPPIPPKKPGLTPSPSATTPLTKTHSQAASLTTAEDLASSCSSNTVVANGKDVELLLPTSS
As to B1, the binding result is “no binding” in experiment [3] and “binds” in experiment [4].

B2: Striatin 3 (protein, UniProt Q13033 1-797)
chain: MDELAGGGGGGPGMAAPPRQQQGPGGNLGLSPGGNGAAGGGGPPASEGAGPAAGPELSRPQQYTIPGILHYIQHEWARFEMERAHWEVERAELQARIAFLQGERKGQENLKKDLVRRIKMLEYALKQERAKYHKLKYGTELNQGDLKMPTFESEETKDTEAPTAPQNSQLTWKQGRQLLRQYLQEVGYTDTILDVRSQRVRSLLGLSNSEPNGSVETKNLEQILNGGESPKQKGQEIKRSSGDVLETFNFLENADDSDEDEENDMIEGIPEGKDKHRMNKHKIGNEGLAADLTDDPDTEEALKEFDFLVTAEDGEGAGEARSSGDGTEWDKDDLSPTAEVWDVDQGLISKLKEQYKKERKGKKGVKRANRTKLYDMIADLGDDELPHIPSGIINQSRSASTRMTDHEGARAEEAEPITFPSGGGKSFIMGSDDVLLSVLGLGDLADLTVTNDADYSYDLPANKDAFRKTWNPKYTLRSHFDGVRALAFHPVEPVLVTASEDHTLKLWNLQKTVPAKKSASLDVEPIYTFRAHIGPVLSLAISSNGEQCFSGGIDATIQWWNMPSPSVDPYDTYEPNVLAGTLVGHTDAVWGLAYSGIKNQLLSCSADGTVRLWNPQEKLPCICTYNGDKKHGIPTSVDFIGCDPAHMVTSFNTGSAVIYDLETSQSLVILSSQVDSGLQSNNHINRVVSHPTLPVTITAHEDRHIKFFDNKTGKMIHSMVAHLDAVTSLAVDPNGIYLMSGSHDCSIRLWNLDSKTCVQEITAHRKKLDESIYDVAFHSSKAYIASAGADALAKVFV
B2: the binding entry in experiment [3] was “no binding”; in experiment [4], “binds”.

B3: SLMAP (protein, UniProt Q14BN4 1-828)
chain: MPSALAIFTCRPNSHPFQERHVYLDEPIKIGRSVARCRPAQNNATFDCKVLSRNHALVWFDHKTGKFYLQDTKSSNGTFINSQRLSRGSEESPPCEILSGDIIQFGVDVTENTRKVTHGCIVSTIKLFLPDGMEARLRSDVIHAPLPSPVDKVAANTPSMYSQELFQLSQYLQEALHREQMLEQKLATLQRLLAITQEASDTSWQALIDEDRLLSRLEVMGNQLQACSKNQTEDSLRKELIALQEDKHNYETTAKESLRRVLQEKIEVVRKLSEVERSLSNTEDECTHLKEMNERTQEELRELANKYNGAVNEIKDLSDKLKVAEGKQEEIQQKGQAEKKELQHKIDEMEEKEQELQAKIEALQADNDFTNERLTALQVRLEHLQEKTLKECSSLEHLLSKSGGDCTFIHQFIECQKKLIVEGHLTKAVEETKLSKENQTRAKESDFSDTLSPSKEKSSDDTTDAQMDEQDLNEPLAKVSLLKDDLQGAQSEIEAKQEIQHLRKELIEAQELARTSKQKCFELQALLEEERKAYRNQVEESTKQIQVLQAQLQRLHIDTENLREEKDSEITSTRDELLSARDEILLLHQAAAKVASERDTDIASLQEELKKVRAELERWRKAASEYEKEITSLQNSFQLRCQQCEDQQREEATRLQGELEKLRKEWNALETECHSLKRENVLLSSELQRQEKELHNSQKQSLELTSDLSILQMSRKELENQVGSLKEQHLRDSADLKTLLSKAENQAKDVQKEYEKTQTVLSELKLKFEMTEQEKQSITDELKQCKNNLKLLREKGNNKPWPWMPMLAALVAVTAIVLYVPGLARASP
On to B3, for which the binding result is given as “no binding” in experiment [3] and “binds” in experiment [4].
